Assay results as given in the supplement of paper PMC10727501.
The other results are listed elsewhere or left out. This data set is noisy: repeats of one test often differ as much as different tests do.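 Researchers measured free-swimming zebrafish larvae's O-bend response probability to dark flashes (naive: first five; training: remaining flashes of four 60-flash blocks; test: later 60-flash block) and OMR turning toward alternating leftward/rightward LED motion. Six treated larvae were compared to sixty 0.1% DMSO controls, with |SSMD|≥2 marking a hit.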 Peptide text beside a SMILES is read from it. * marks the point of attachment. Cbz = O=C(OCc1ccccc1)*

What follows are compounds tested on Danio rerio larvae (5 dpf, TLF) (assay: Prob-Naive (SSMD vs DMSO vehicle); higher = higher than vehicle (e.g. higher dark-flash O-bend response probability, or better optomotor performance)). Details: 10 µM; pre-incubation: 30-90 min.

Structure (SMILES)	Prob-Naive
Cc1onc(-c2ccccc2)c1C(=O)N[C@@H]1C(=O)N2[C@@H]1SC(C)(C)[C@H]2C(=O)[O-].O.[Na+] [Oxacillin sodium monohydrate]	-0.142
c1cn2cc(-c3ccc4cn[nH]c4c3)nc(Nc3ccc(N4CCOCC4)cc3)c2n1	-0.455
COc1cc(C)c(/C=C/C(C)=C/C=C/C(C)=C/C(=O)O)c(C)c1C [Acitretin]	-0.0234
C[C@]12C=CC(=O)C=C1CC[C@H]1[C@@H]3C[C@@H](O)[C@@](O)(C(=O)CO)[C@@]3(C)C[C@@H](O)[C@]12F [Triamcinolone]	0.285
CN(C)CCCN1c2ccccc2Sc2ccc(Cl)cc21.Cl [Chlorpromazine HCl]	-0.949
Nc1nc(N)c(N=O)c(OCC2CCCCC2)n1	0.0457
O=C([O-])c1cc(/N=N/c2ccc(O)c(C(=O)[O-])c2)ccc1O.[Na+].[Na+] [Olsalazine Sodium]	0.263
C#C[C@@]1(O)CC[C@H]2[C@@H]3CCC4=CC(=O)CC[C@@H]4[C@@H]3CC[C@@]21CC [Levonorgestrel]	-0.775
CCCCC1=NC2(CCCC2)C(=O)N1Cc1ccc(-c2ccccc2-c2nn[nH]n2)cc1 [Irbesartan]	0.126

These compounds were tested on Danio rerio larvae (5 dpf, TLF) (assay: Prob-Train (SSMD vs DMSO vehicle); higher = higher than vehicle (e.g. higher dark-flash O-bend response probability, or better optomotor performance)). Details: 10 µM; pre-incubation: 30-90 min.

Structure (SMILES)	Prob-Train
Cl.c1ccc2c(CC3=NCCN3)cccc2c1 [Naphazoline HCl]	-0.287
CC(C)C[C@@H](C=O)NC(=O)[C@H](CC(C)C)NC(=O)[C@H](CC(C)C)NC(=O)OCc1ccccc1 (Cbz-Leu-Leu-Leu-aldehyde)	0.0897
CN[C@H](CC(C)C)C(=O)N[C@H]1C(=O)N[C@@H](CC(N)=O)C(=O)N[C@H]2C(=O)N[C@H]3C(=O)N[C@@H](C(=O)N[C@H](C(=O)O)c4cc(O)cc(O)c4-c4cc3ccc4O)[C@H](O)c3ccc(c(Cl)c3)Oc3cc2cc(c3O[C@H]2O[C@H](CO)[C@@H](O)[C@H](O)[C@H]2O[C@H]2C[C@@](C)(N)[C@H](O)[C@H](C)O2)Oc2ccc(cc2Cl)[C@H]1O.Cl [Vancomycin HCl (Vancocin)]	-0.27
COc1ccccc1N1CCN(CC(O)COc2cccc3ccccc23)CC1.Cl.Cl (stereo not drawn) [Naftopidil DiHCl]	-3.04
C/C=C1/[C@H]2C=C(C)C[C@]1(N)c1ccc(=O)[nH]c1C2 [(-)-Huperzine A (HupA)]	0.0806
C=CC[C@@H]1/C=C(\C)C[C@H](C)C[C@H](OC)[C@@H]2O[C@@](O)(C(=O)C(=O)N3CCCC[C@H]3C(=O)O[C@H](/C(C)=C/[C@@H]3CC[C@H](O)[C@H](OC)C3)[C@H](C)[C@@H](O)CC1=O)[C@H](C)C[C@@H]2OC [Tacrolimus (FK506)]	1.59
COc1cc(C(=O)NS(=O)(=O)c2ccccc2C)ccc1Cc1cn(C)c2ccc(NC(=O)OC3CCCC3)cc12 [Zafirlukast]	0.153
CC1COc2c(N3CCN(C)CC3)c(F)cc3c(=O)c(C(=O)O)cn1c23 (stereo not drawn) [Ofloxacin (Floxin)]	0.0959
O=C(/C=C/c1ccc(CN(CCO)CCc2c[nH]c3ccccc23)cc1)NO [LAQ824 (Dacinostat)]	0.258
Cn1cnc([N+](=O)[O-])c1Sc1ncnc2nc[nH]c12 [Azathioprine]	-0.172
C/C(=N\NC(=O)c1cccc(S(=O)(=O)N2CCOCC2)c1)c1cc(Cl)ccc1O	-0.352
CC1(C)[C@@H](O[C@H]2O[C@H](C(=O)O)[C@@H](O)[C@H](O)[C@@H]2O[C@@H]2O[C@H](C(=O)O)[C@@H](O)[C@H](O)[C@@H]2O)CC[C@@]2(C)[C@H]1CC[C@]1(C)[C@H]2C(=O)C=C2[C@H]3C[C@@](C)(C(=O)O)CC[C@]3(C)CC[C@]21C [Glycyrrhizic Acid]	0.000763
Cc1ccccc1C(=O)Nc1ccc(C(=O)N2CCCC(O)c3cc(Cl)ccc32)c(C)c1 (stereo not drawn) [Tolvaptan]	0.366
CC(O)C1C(=O)N2C(C(=O)O)=C(SC3CNC(C(=O)N(C)C)C3)C(C)C12 (stereo not drawn) [Meropenem]	0.694

At a glance, part of the list above:
Structure (SMILES)	Prob-Train
CC1(C)[C@@H](O[C@H]2O[C@H](C(=O)O)[C@@H](O)[C@H](O)[C@@H]2O[C@@H]2O[C@H](C(=O)O)[C@@H](O)[C@H](O)[C@@H]2O)CC[C@@]2(C)[C@H]1CC[C@]1(C)[C@H]2C(=O)C=C2[C@H]3C[C@@](C)(C(=O)O)CC[C@]3(C)CC[C@]21C [Glycyrrhizic Acid]	0.000763
Cc1ccccc1C(=O)Nc1ccc(C(=O)N2CCCC(O)c3cc(Cl)ccc32)c(C)c1 (stereo not drawn) [Tolvaptan]	0.366
